Measurements taken from PubChem BioAssay AID651768 (National Center for Advancing Translational Sciences (NCATS), 2012).
Screen size: about 360,000 compounds; about 1,700 (0.47%) were called active. Inconclusive means that the source gave no clear call. Such entries were picked first, then a sample of the others. The call rests on the fitted dose curve; in most records, active means well fitted inhibition curve with a large enough effect; inconclusive means small, poorly fitted or top-dose-only effect; inactive means no such curve, though single readings can be large or run the other way. Potencies beside an inconclusive call are fits to weak or partial responses and may not hold up.
Further: nearly all actives have a fitted effect of over 55% in size.
On the % scale 0 is the no-effect control and ±100 the full control effect; potency means the concentration at half of the fitted maximal effect.

Chains of the proteins cited; added tags and fusions are not shown.
UniProt Q14191, whole entry, looked up: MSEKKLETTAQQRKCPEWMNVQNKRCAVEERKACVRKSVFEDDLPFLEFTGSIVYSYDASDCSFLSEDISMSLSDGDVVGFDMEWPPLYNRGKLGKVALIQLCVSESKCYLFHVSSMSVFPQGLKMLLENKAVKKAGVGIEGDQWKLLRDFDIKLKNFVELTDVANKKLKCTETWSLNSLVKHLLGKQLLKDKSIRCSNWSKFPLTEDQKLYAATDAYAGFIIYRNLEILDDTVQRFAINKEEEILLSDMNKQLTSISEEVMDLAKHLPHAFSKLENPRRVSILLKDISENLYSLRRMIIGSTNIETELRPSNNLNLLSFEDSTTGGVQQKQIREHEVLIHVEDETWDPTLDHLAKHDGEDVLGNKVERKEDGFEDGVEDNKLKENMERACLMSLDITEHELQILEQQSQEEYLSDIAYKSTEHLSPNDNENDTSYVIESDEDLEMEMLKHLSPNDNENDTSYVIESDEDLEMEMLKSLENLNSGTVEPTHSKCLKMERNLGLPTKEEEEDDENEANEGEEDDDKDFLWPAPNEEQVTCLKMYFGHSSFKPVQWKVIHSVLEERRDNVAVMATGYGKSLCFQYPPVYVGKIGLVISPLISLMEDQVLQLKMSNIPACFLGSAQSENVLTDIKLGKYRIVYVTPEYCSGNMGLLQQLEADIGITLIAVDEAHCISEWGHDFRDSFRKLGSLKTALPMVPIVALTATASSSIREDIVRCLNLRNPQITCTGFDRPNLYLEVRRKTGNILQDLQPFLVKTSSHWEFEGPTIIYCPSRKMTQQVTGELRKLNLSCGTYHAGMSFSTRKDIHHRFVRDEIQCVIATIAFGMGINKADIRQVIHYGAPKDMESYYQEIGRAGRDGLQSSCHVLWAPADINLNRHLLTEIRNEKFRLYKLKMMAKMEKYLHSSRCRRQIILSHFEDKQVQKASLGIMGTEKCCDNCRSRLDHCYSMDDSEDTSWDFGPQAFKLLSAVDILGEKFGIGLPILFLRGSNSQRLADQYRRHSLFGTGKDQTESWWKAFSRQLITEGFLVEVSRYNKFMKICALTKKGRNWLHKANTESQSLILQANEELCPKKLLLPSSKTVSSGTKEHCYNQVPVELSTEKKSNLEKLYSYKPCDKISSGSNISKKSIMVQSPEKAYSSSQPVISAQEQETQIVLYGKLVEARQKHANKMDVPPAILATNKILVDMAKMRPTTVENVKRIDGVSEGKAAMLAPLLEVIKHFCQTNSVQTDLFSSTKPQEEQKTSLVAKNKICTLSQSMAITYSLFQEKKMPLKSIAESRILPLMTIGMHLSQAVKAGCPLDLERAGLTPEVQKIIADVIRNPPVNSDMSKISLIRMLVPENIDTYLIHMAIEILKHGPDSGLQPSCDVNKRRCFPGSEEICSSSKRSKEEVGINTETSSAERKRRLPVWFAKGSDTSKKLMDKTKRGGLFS

The molecules below were run against Bifunctional 3'-5' exonuclease/ATP-dependent helicase WRN (Homo sapiens) (UniProt Q14191) (assay: qHTS for Inhibitors of WRN Helicase). Conditions: WRN helicase unwinding, fluorescent forked duplex, kinetic; activity change, negative = inhibition: at 114 µM (top of the series) unless noted.
Procedure, shortened: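 Screening of the MLSMR collection measured strand separation of a quenched forked DNA duplex (100 nM) by 20 nM WRN with 2 mM ATP, all final. Compounds were preincubated with enzyme 15 min at room temperature.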
In the case of O=[N+]([O-])c1cc(C(F)(F)F)cc([N+](=O)[O-])c1Sc1n[nH]c(C(F)(F)F)n1, the Potency is reported as inconclusive: 70.8 µM [inhibitor, single point].
In the case of O=C(CCS(=O)(=O)c1ccc(Br)cc1)NCCc1ccccc1, the Potency is reported as inconclusive: 28.2 µM [inhibitor, single point].
For Cc1nc2ccc3nc(NC(=O)c4ccco4)sc3c2s1, the Potency was inconclusive: 50.1 µM [inhibitor, partial curve].
With O=C(O)c1cc(Cl)c2c(c1)[C@@H]1C=CC[C@@H]1[C@H](c1ccc(S(=O)(=O)N3CCOCC3)cc1)N2 the Potency was active: 28.2 µM.
COc1ccc(CN2CCN(C(=O)c3c(-c4ccccc4)noc3C)CC2)cc1F was tested, and the Potency was “inactive”.
In the case of Cc1cc(N)ccc1N1CCCC1, the Potency is reported as active: 50.1 µM.
In the case of O=C(CN1C(=O)/C(=C2/SC(=S)N(CCS(=O)(=O)O)C2=O)c2ccccc21)Nc1cccc(C(F)(F)F)c1, the Potency is reported as active: 17.8 µM.
CC(C)(C)OC(=O)N[C@@H](Cc1ccccc1)c1nnc(SCC(N)=O)o1 was tested, and the Potency was “inactive”.
In the case of O=C(OCC(=O)c1c[nH]c2ccccc12)c1cc2ccccc2cc1O, the Potency is reported as inconclusive: 11.2 µM [inhibitor, partial curve].
With COC(=O)c1cc(C)nc2c1C(=O)C(=O)C=C2N1CCOCC1 the Potency was inconclusive: 50.1 µM [inhibitor, partial curve].
With COc1ccc(Nc2nnc(-c3ccc(O)cc3)c3ccccc23)cc1C(N)=O the Potency was “inactive”.
With COCCn1c(NC(=S)NC(=O)C2CC2)cc(=O)[nH]c1=O the Potency was inconclusive: 39.8 µM [inhibitor, full curve, poor fit].
With O=C(O)c1ccccc1NC(=O)C1CCN(S(=O)(=O)c2ccc3c(c2)OCCO3)CC1 the Potency was “inactive”.
For NC(=O)c1nsc(C(=O)N(CC(=O)NCc2ccccc2)c2cccc(F)c2)c1N, the Potency was inconclusive: 20 µM [inhibitor, partial curve].
O=C(COC(=O)Cn1[nH]c(=O)c2ccccc2c1=O)Nc1ncc(Cl)cc1Cl was tested, and the Potency was inconclusive: 28.2 µM [inhibitor, full curve, poor fit].
In the case of Cc1noc(C)c1CSCC(=O)NCCN1C(=O)S/C(=C\c2ccccc2F)C1=O, the Potency is reported as inconclusive: 89.1 µM [inhibitor, single point].
For COCCNC(=O)c1cc2c(-c3ccccc3F)nn(C)c2s1, the Potency was inconclusive: 39.8 µM [inhibitor, full curve, poor fit].
For COc1ccc(-c2csc(/C(C#N)=C\c3ccc(O)c([N+](=O)[O-])c3)n2)cc1OC, the Potency was inconclusive: 17.8 µM [inhibitor, full curve].
For O=[N+]([O-])c1ccc(-c2cc(-c3ccc(Cl)cc3)n[nH]2)cc1, the Potency was active: 100 µM.
For O=C(NCCO)c1ccc2c(c1)S(=O)(=O)c1ccccc1C2=O, the Potency was “inactive”.
In the case of O=C(NNS(=O)(=O)c1ccccc1)c1csc(-c2cccnc2)n1, the Potency is reported as inconclusive: 3.55 µM [inhibitor, full curve, poor fit].
O=C(O)CN1C(=O)/C(=C\c2cc(Br)ccc2OCc2ccc([N+](=O)[O-])cc2)SC1=S was tested, and the Potency was inconclusive: 79.4 µM [inhibitor, single point].
COc1ccccc1NC(=O)COC(=O)c1cc2c(s1)CCC2 was tested, and the Potency was inconclusive: 56.2 µM [inhibitor, partial curve].
In the case of CNC(=O)C(Sc1nc(C)nc2c1oc1ccccc12)C(C)=O (stereo not drawn), the Potency is reported as inconclusive: 17.8 µM [inhibitor, full curve, poor fit].
For Cc1cc(Br)ccc1NC(=O)CN(C)C(=O)CCSc1ccc(F)cc1, the Potency was “inactive”.
In the case of O=c1oc(-c2cccc([N+](=O)[O-])c2)nc2ccccc12, the Potency is reported as inconclusive: 50.1 µM [inhibitor, partial curve].
COc1ccc(N2C(=O)C(Cl)=C(Oc3cccc(OC)c3)C2=O)cc1 was tested, and the Potency was inconclusive: 10 µM [inhibitor, partial curve].
For O=C1OC(c2ccco2)=N/C1=C\c1ccc(-c2cccc(C(F)(F)F)c2)o1, the Potency was inconclusive: 4.74 µM [inhibitor, single point].
For CCN(C(=O)COC(=O)[C@H](C)N=C1NS(=O)(=O)c2ccccc21)C1CCS(=O)(=O)C1 (stereo partly drawn), the Potency was inconclusive: 39.8 µM [inhibitor, partial curve].
For COc1ccc(CCNC2CC(C)N(C)CC2C)cc1OC (stereo not drawn), the Potency was “inactive”.
COc1ccc2[nH]cc(CCNC(=O)Cc3c(F)cccc3Cl)c2c1 was tested, and the Potency was inconclusive: 79.4 µM [inhibitor, single point].
For COc1ccc(OC)c(-c2c3cc(O)c(=O)cc-3oc3cc(O)c(O)cc23)c1, the Potency was active: 79.4 µM.
In the case of COC(=O)c1c(C)nc(C)c(C(=O)OC)c1-c1ccc(OC)c(OC)c1, the Potency is reported as “inactive”.
With Cc1ccc(S(=O)(=O)NC2=C(N3CCN(Cc4ccccc4)CC3)C(=O)c3ccccc3C2=O)cc1 the Potency was inconclusive: 10 µM [inhibitor, partial curve].
For CN(C)/C=C/C=C1C(=O)CCCC1=O, the Potency was inconclusive: 63.1 µM [inhibitor, partial curve, poor fit].
For Cn1c(=O)c(NCCc2ccccc2)c2c3c(cccc31)C(=O)c1ccccc1-2, the Potency was active: 39.8 µM.
In the case of O=C(O)c1cc(-c2ccc(/C=N/NC(=S)Nc3ccccc3)o2)ccc1Cl, the Potency is reported as inconclusive: 31.6 µM [inhibitor, partial curve].
For COc1cccc(-c2[nH]nc3c2C(c2ccoc2)C(C#N)=C(N)O3)c1 (stereo not drawn), the Potency was inconclusive: 2.38 µM [inhibitor, partial curve].
For CCn1c(=S)[nH]c2c(=O)n(C)c(=O)n(C)c21, the Potency was active: 50.1 µM.
With COc1ccc(-n2c(N)c(C(=O)Nc3c(C)n(C)n(-c4ccccc4)c3=O)c3nc4ccccc4nc32)cc1 the Potency was inconclusive: 89.1 µM [inhibitor, single point].
With CN(C)/C=C1\SC(=S)N(c2ccc(Br)cc2)C1=O the Potency was inconclusive: 2.99 µM [inhibitor, partial curve].
With O=C(NCc1cccc(Cl)c1)c1ccc(S(=O)(=O)Nc2cccc(C(F)(F)F)c2)cc1 the Potency was inconclusive: 10 µM [inhibitor, partial curve].
COc1ccc(-c2nnc(Nc3ccc(S(=O)(=O)Nc4nccs4)cc3)c3ccccc23)cc1 was tested, and the Potency was active: 50.1 µM.
Cc1cc(OCC(=O)OCC(=O)N2CCc3ccccc32)ccc1Cl was tested, and the Potency was “inactive”.
For CCOC(=O)C(O)(NC(=O)c1cccnc1)C(F)(F)F (stereo not drawn), the Potency was “inactive”.
For COc1ccccc1NC(=O)Nc1nc(CC(=O)Nc2cc(F)ccc2F)cs1, the Potency was inconclusive: 25.1 µM [inhibitor, full curve, poor fit].
For Cc1ccc(O)c(N=Cc2cc(Cc3ccccc3)cc([N+](=O)[O-])c2O)c1, the Potency was inconclusive: 28.2 µM [inhibitor, single point].
For COc1ccc(-c2[nH]n(-c3ccc([N+](=O)[O-])cc3)c(=O)c2C=NCc2ccncc2)cc1, the Potency was inconclusive: 39.8 µM [inhibitor, full curve].
For O=C(Nc1nc(-c2ccco2)c(-c2ccco2)s1)C1CCC1, the Potency was inconclusive: 25.1 µM [inhibitor, single point].
In the case of O=C(NC(NC(=S)Nc1ccccc1Cl)C(Cl)(Cl)Cl)c1cccc(Cl)c1 (stereo not drawn), the Potency is reported as “inactive”.
For C[C@@H](C(=O)Nc1nc(-c2ccccn2)cs1)N1C(=O)C2CCCCC2C1=O (stereo partly drawn), the Potency was inconclusive: 31.6 µM [inhibitor, partial curve].
In the case of Cc1ccc(NC(=O)COC(=O)c2ccc([N+](=O)[O-])o2)cc1S(=O)(=O)N1CCCCC1, the Potency is reported as “inactive”.
CC(Sc1nnc(-c2cccs2)n1-c1ccccc1)C(=O)NCc1ccco1 (stereo not drawn) was tested, and the Potency was “inactive”.
With Cc1ccc(NC(=S)Nc2ccccn2)c(C)c1 the Potency was inconclusive: 3.98 µM [inhibitor, full curve, poor fit].
With O=C(COC(=O)CSc1ccc(F)cc1)NCC1CCCCC1 the Potency was inconclusive: 79.4 µM [inhibitor, partial curve].
With C/C(=N\N=C(N)N)c1ccc(Cl)cc1Cl the Potency was inconclusive: 39.8 µM [inhibitor, single point].
Cc1cc(C)c(C(=O)/C=C/c2cccc3ccccc23)c(=O)[nH]1 was tested, and the Potency was “inactive”.
With COc1ccc(C(=O)Nc2ccnn2C2CCN(C(=O)c3cnsn3)CC2)cc1 the Potency was inconclusive: 89.1 µM [inhibitor, single point].
With COC(=O)c1ccccc1NC(=O)COC(=O)c1ccco1 the Potency was inconclusive: 44.7 µM [inhibitor, full curve, poor fit].
In the case of CC(=O)Nc1ccc(NC(=O)C(C)OC(=O)/C(C#N)=C/c2ccc(N(C)C)cc2)cc1 (stereo not drawn), the Potency is reported as inconclusive: 44.7 µM [inhibitor, partial curve].
COc1cc(CC(=O)Nc2c(-c3ccccc3)[nH][nH]c2=O)cc(OC)c1 was tested, and the Potency was “inactive”.
In the case of COC(=O)c1ccc(Cn2c(O)c(N=NC(N)=S)c3ccccc32)o1, the activity change, negative = inhibition is reported as inactive: -3.56% [at 11.6 µM].
CCOC(=O)c1cc(-c2ccc(N3CCOCC3)cc2)nn1-c1ccccc1C(=O)O was tested, and the Potency was inconclusive: 56.2 µM [inhibitor, partial curve].
With O=C1NC(=O)/C(=C/c2ccccc2Oc2ccc(Cl)cc2)S1 the Potency was “inactive”.
With COc1cc(C(=O)Nc2nnc(-c3sccc3C)s2)cc(OC)c1OC the Potency was active: 50.1 µM.
With Cn1c(-c2ccccc2)cnc1NCc1cc(Cl)ccc1O the Potency was inconclusive: 10 µM [inhibitor, full curve].
NS(=O)(=O)c1ccc(N/N=C/c2ccc(O)c(O)c2O)c([N+](=O)[O-])c1 was tested, and the Potency was inconclusive: 2.99 µM [inhibitor, partial curve].
In the case of CCCCNS(=O)(=O)c1ccc2nc(SCC(=O)Nc3ccccc3Cl)[nH]c2c1, the Potency is reported as inconclusive: 39.8 µM [inhibitor, single point].
